Paper PMC12591164
Results are given in words; binding and its absence hold for the method and conditions named. Binding seen in cells or lysates may run through a third protein. Binding calls can cover weak binding; strength is not graded here.

Amino acid sequences for entries named in this document (tags omitted). A change or cut given only in a name is not applied to a line headed by its entry.
UniProt P58371: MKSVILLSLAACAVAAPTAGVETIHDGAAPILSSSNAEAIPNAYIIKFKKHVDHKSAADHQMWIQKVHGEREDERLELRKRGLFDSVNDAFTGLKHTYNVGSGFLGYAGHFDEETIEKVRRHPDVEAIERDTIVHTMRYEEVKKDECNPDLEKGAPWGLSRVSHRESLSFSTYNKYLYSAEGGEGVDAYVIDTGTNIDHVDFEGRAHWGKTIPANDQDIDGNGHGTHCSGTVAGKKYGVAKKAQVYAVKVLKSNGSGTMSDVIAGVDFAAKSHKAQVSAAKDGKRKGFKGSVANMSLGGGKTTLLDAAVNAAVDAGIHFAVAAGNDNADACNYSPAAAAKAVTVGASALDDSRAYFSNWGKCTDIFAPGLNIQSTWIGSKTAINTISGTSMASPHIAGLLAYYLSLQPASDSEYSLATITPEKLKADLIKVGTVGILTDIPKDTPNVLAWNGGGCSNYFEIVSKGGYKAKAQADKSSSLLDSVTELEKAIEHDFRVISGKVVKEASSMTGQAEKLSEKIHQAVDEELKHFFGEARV
UniProt G4NDG4: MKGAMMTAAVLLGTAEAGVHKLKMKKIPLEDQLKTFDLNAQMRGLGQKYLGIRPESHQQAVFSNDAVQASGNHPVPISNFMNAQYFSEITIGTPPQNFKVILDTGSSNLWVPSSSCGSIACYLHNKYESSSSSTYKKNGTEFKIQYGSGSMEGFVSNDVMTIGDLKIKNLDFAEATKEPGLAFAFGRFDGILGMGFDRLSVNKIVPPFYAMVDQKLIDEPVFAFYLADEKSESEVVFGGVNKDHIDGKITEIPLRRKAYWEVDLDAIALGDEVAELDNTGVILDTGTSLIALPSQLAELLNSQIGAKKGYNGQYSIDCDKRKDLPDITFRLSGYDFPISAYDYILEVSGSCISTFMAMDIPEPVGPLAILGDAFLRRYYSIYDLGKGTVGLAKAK

Target: MoPrb1-nYFP (Magnaporthe oryzae) (UniProt P58371)
Assay: split reporter

For “cYFP-MoPep4 (from UniProt G4NDG4) (enzyme)”, the binding was “binds”.
